From publication PMC10042772 (Targeted Oncology, 2023)

System: MDA-MB-453 cells
Test: CellTiter-Glo 2.0 viability assay, 10 days
Format: cell-based
Details: Homo sapiens, MDA-MB-453, 240 h, read-out: IC50, proliferation (CTG)

IC50: 11.7 µM
Compound: CNC(=O)c1ccc(N2C(=S)N(c3ccc(C#N)c(C(F)(F)F)c3)C(=O)C2(C)C)cc1F [Enzalutamide, enzalutamide]
